Reference: patent US11135246B2, “Peptides and combination of peptides for use in immunotherapy against leukemias and other cancers” (Immatics Biotechnologies GmbH, priority 2017, dated 2021)

Tested on: HLA molecules of primary tumor samples
Test: Identification of tumor associated peptides presented on the cell surface (HLA immune precipitation, LC-MS)
Set-up: species or system human
Details: for Peptide Presentation on cancer entities: entities on which the peptide was presented, CLL = chronic lymphocytic leukemia, AML = acute myeloid leukemia, CML = Chronic myeloid leukemia; for Peptide Presentation on tumor types: tumor entities on which the peptide was found presented (Table 8b); for presentation on cancer entities (Table 8a): CLL, AML, CML samples; for presentation on cancer entities (Table 8b): other cancer entities

Substance | Peptide Presentation on cancer entities | Peptide Presentation on tumor types | presentation on cancer entities (Table 8a) | presentation on cancer entities (Table 8b)
248 (LPYDSKHQI; listed as Homo sapiens) [compound 248] | CLL | BRCA, CRC, GBC, GBM, GC, HNSCC, MEL, NHL, NSCLCadeno, NSCLCother, NSCLCsquam, OC, OSCAR, PACA, PRCA, RCC, SCLC, UBC, UEC | – | –
249 (SPADHRGYASL; listed as Homo sapiens) [compound 249] | AML | BRCA, CRC, GBC, HCC, HNSCC, MEL, NSCLCadeno, NSCLCother, NSCLCsquam, OC, OSCAR, RCC, SCLC, UBC, UEC | – | –
250 (VPNLQTVSV; listed as Homo sapiens) [compound 250] | CLL | BRCA, CCC, CRC, GBC, GC, HCC, HNSCC, MEL, NHL, NSCLCadeno, NSCLCsquam, OC, OSCAR, PACA, PRCA, RCC, SCLC, UBC, UEC | – | –
251 (QPRLFTMDL; listed as Homo sapiens) [compound 251] | CLL | BRCA, CRC, GBC, GC, HCC, HNSCC, MEL, NHL, NSCLCadeno, NSCLCother, NSCLCsquam, OC, OSCAR, PACA, RCC, SCLC, UEC | – | –
252 (RPHIPISKL; listed as Homo sapiens) [compound 252] | CLL | BRCA, CRC, GBC, GBM, HCC, HNSCC, MEL, NHL, NSCLCadeno, NSCLCother, NSCLCsquam, OC, OSCAR, PACA, RCC, SCLC, UBC, UEC | – | –
253 (RPFADLLGTAF; listed as Homo sapiens) [compound 253] | CLL | BRCA, GBC, GC, HCC, HNSCC, MEL, NHL, NSCLCadeno, NSCLCsquam, OC, OSCAR, PACA, SCLC, UBC, UEC | – | –
254 (SPRNLQPQRAAL; listed as Homo sapiens) [compound 254] | CLL | CRC, GBC, HCC, HNSCC, MEL, NHL, NSCLCadeno, NSCLCsquam, OSCAR, PACA, RCC, SCLC, UBC | – | –
255 (YPGSDRIML; listed as Homo sapiens) [compound 255] | CLL | MEL, NHL, NSCLCadeno | – | –
256 (SPYKKLKEAL; listed as Homo sapiens) [compound 256] | CLL | BRCA, MEL, NHL, NSCLCadeno, NSCLCother, NSCLCsquam, OSCAR, PRCA, RCC, SCLC, UBC | – | –
257 (KEFFFVKVF; listed as Homo sapiens) [compound 257] | CLL | BRCA, CRC, GC, HCC, HNSCC, MEL, NHL, NSCLCadeno, NSCLCsquam, OSCAR, PACA, RCC, SCLC, UBC, UEC | – | –
258 (EELFRDGVNW; listed as Homo sapiens) [compound 258] | CLL | CCC, CRC, HCC, MEL, NHL, NSCLCadeno, NSCLCsquam, PACA, PRCA, UEC | – | –
259 (EENTLVQNY; listed as Homo sapiens) [compound 259] | CLL | BRCA, CRC, HCC, HNSCC, MEL, NHL, NSCLCadeno, NSCLCother, NSCLCsquam, OC, OSCAR, PACA, PRCA, SCLC, UBC, UEC | – | –
260 (AEIGEGAYGKVF; listed as Homo sapiens) [compound 260] | AML | BRCA, CCC, CRC, GBM, HCC, HNSCC, MEL, NHL, NSCLCadeno, NSCLCother, NSCLCsquam, OC, OSCAR, PACA, PRCA, UBC, UEC | – | –
261 (NEIEHIPVW; listed as Homo sapiens) [compound 261] | CLL | NHL, OSCAR | – | –
262 (QENQAETHAW; listed as Homo sapiens) [compound 262] | CLL | NHL | – | –
263 (REAGFQVKAY; listed as Homo sapiens) [compound 263] | CLL | MEL, NHL | – | –

Substance | Peptide Presentation on cancer entities | Peptide Presentation on tumor types | presentation on cancer entities (Table 8a) | presentation on cancer entities (Table 8b)
264 (SEDHSGSYW; listed as Homo sapiens) [compound 264] | CLL | CRC, GC, MEL, NHL, NSCLCadeno, NSCLCsquam | – | –
265 (QEVDASIFKAW; listed as Homo sapiens) [compound 265] | CLL | BRCA, CCC, CRC, GBC, GC, HCC, HNSCC, MEL, NHL, NSCLCadeno, NSCLCother, NSCLCsquam, OC, OSCAR, PACA, PRCA, RCC, SCLC, UBC, UEC | – | –
266 (VDASIFKAW; listed as Homo sapiens) [compound 266] | CLL | BRCA, CRC, GBC, HCC, HNSCC, MEL, NHL, NSCLCadeno, NSCLCsquam, OC, OSCAR, PACA, RCC, SCLC, UBC, UEC | – | –
267 (KEKFPINGW; listed as Homo sapiens) [compound 267] | CLL | CRC, HNSCC, NHL, PACA | – | –
268 (NEDKGTKAW; listed as Homo sapiens) [compound 268] | CLL | – | – | –
269 (KELEDLNKW; listed as Homo sapiens) [compound 269] | CLL | BRCA, CRC, GBC, GBM, HCC, HNSCC, MEL, NHL, NSCLCadeno, NSCLCsquam, OC, OSCAR, PACA, PRCA, RCC, UEC | – | –
270 (AESEDLAVHL; listed as Homo sapiens) [compound 270] | CLL | MEL, NSCLCsquam | – | –
271 (AESEDLAVHLY; listed as Homo sapiens) [compound 271] | CLL | CRC, HCC, HNSCC, MEL, NHL, NSCLCadeno, NSCLCsquam, OSCAR, PACA | – | –
272 (KEFELRSSW; listed as Homo sapiens) [compound 272] | CLL | BRCA, CRC, GC, HCC, HNSCC, MEL, NHL, NSCLCadeno, NSCLCsquam, OSCAR, PACA, PRCA, RCC, UEC | – | –
273 (AEIEIVKEEF; listed as Homo sapiens) [compound 273] | CLL | BRCA, CCC, CRC, GBC, GBM, GC, HCC, HNSCC, MEL, NHL, NSCLCadeno, NSCLCsquam, OC, OSCAR, PACA, PRCA, RCC, SCLC, UBC, UEC | – | –
274 (GEAVTDHPDRLW; listed as Homo sapiens) [compound 274] | CLL | NHL | – | –
275 (TENPLTKLL; listed as Homo sapiens) [compound 275] | AML | BRCA, CRC, HCC, NHL | – | –
276 (EEEGNLLRSW; listed as Homo sapiens) [compound 276] | CLL | BRCA, CCC, CRC, GBC, GC, HCC, HNSCC, MEL, NHL, NSCLCadeno, NSCLCother, NSCLCsquam, OC, OSCAR, PACA, PRCA, RCC, SCLC, UBC, UEC | – | –
277 (EEGNLLRSW; listed as Homo sapiens) [compound 277] | CLL | BRCA, CRC, GC, HCC, HNSCC, MEL, NHL, NSCLCadeno, NSCLCother, NSCLCsquam, OSCAR, PACA, RCC, UBC, UEC | – | –
ALDQNKMHY (listed as Homo sapiens) [Seq ID No 4] | – | – | CLL | BRCA, CCC, CRC, GBC, GC, GEJC, HCC, HNSCC, MEL, NSCLCadeno, NSCLCother, NSCLCsquam, OSCAR, PACA, PRCA, SCLC, UBC, UEC
YINPAKLTPY (listed as Homo sapiens) [Seq ID No 3] | – | – | AML, CML | GBC, MEL, NHL, NSCLC and UBC
